PubChem BioAssay AID1259268, Sanger Institute – 2017
Test: 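Kinase knock-downs that boost killing of colorectal cancer cells by targeted drugs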 (follow-up of hits). System: human SNUC1 colorectal cancer cells. Knock-down reagent: single siRNA against human genes. Challenge: anchor drugs added a day after transfection: BYL719 1 µM, cetuximab 5 µg/ml or trametinib 10 nM, versus DMSO vehicle. Read-out: 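Mean viability per well relative to non-targeting pool 2 siRNA, plus a synergy score weighing the joint knock-down and drug effect against each effect alone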. Scale: synergy score with trametinib and synergy score with cetuximab and synergy score with BYL719: higher = stronger synergy of knock-down with drug. Rule for the call: 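Active if the synergy score is above 0.10 for at least one of the three drugs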. Calls: active = synergy with at least one drug; inactive = no synergy with any drug.
Shown is a random part of 160 deposited reagents. 58 of them (36%) count as active. 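Trametinib by itself roughly halved viability, making its arm harsher than the cetuximab and BYL719 arms.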 Reagents against one gene are numbered here. Further read-outs or replicates are left out here. The record does not give: the amount of reagent, the time to read-out.

The first 2 records, ahead of the listing:
no.	gene	reagent	synergy score with trametinib	synergy score with cetuximab	synergy score with BYL719	Outcome
1	PAK1 (GeneID 5058)	1	0.13	-0.0663	-0.192	active
2	PAK1 (GeneID 5058)	2	-0.1	-0.0788	-0.239	inactive

Main list, from the start:
no.	gene	reagent	synergy score with trametinib	synergy score with cetuximab	synergy score with BYL719	Outcome
1	PAK1 (GeneID 5058)	1	0.13	-0.0663	-0.192	active
2	PAK1 (GeneID 5058)	2	-0.1	-0.0788	-0.239	inactive
3	PAK1 (GeneID 5058)	3	0.059	0.148	-0.216	active
4	PAK1 (GeneID 5058)	4	0.088	-0.0663	0.00804	inactive
5	COASY (GeneID 80347)	1	-0.105	-0.112	-0.0964	inactive
6	COASY (GeneID 80347)	2	0.0202	0.0136	0.0326	inactive
7	COASY (GeneID 80347)	3	0.144	-0.0242	-0.074	active
8	COASY (GeneID 80347)	4	0.0221	-0.0338	-0.147	inactive
9	IRAK3 (GeneID 11213)	1	-0.0756	-0.0359	-0.249	inactive
10	IRAK3 (GeneID 11213)	2	0.0268	-0.147	-0.304	inactive
11	IRAK3 (GeneID 11213)	3	-0.0247	0.0175	-0.0948	inactive
12	IRAK3 (GeneID 11213)	4	-0.109	-0.105	-0.262	inactive
13	MAPK4 (GeneID 5596)	1	0.0561	0.0425	-0.0463	inactive
14	MAPK4 (GeneID 5596)	2	0.00816	-0.0692	0.0311	inactive
15	MAPK4 (GeneID 5596)	3	0.025	-0.0802	-0.141	inactive
16	MAPK4 (GeneID 5596)	4	0.0573	-0.0253	-0.0177	inactive
17	CHD4 (GeneID 1108)	1	-0.0142	-0.0365	-0.161	inactive
18	CHD4 (GeneID 1108)	2	0.0278	-0.0432	-0.0105	inactive
19	CHD4 (GeneID 1108)	3	0.0401	-0.0841	-0.11	inactive
20	CHD4 (GeneID 1108)	4	0.137	0.104	-0.0698	active
